The values below come from PMC7332966.

Protein sequences, listed by entry. Tags and fused reporters are not part of them.
UniProt Q8TAF3: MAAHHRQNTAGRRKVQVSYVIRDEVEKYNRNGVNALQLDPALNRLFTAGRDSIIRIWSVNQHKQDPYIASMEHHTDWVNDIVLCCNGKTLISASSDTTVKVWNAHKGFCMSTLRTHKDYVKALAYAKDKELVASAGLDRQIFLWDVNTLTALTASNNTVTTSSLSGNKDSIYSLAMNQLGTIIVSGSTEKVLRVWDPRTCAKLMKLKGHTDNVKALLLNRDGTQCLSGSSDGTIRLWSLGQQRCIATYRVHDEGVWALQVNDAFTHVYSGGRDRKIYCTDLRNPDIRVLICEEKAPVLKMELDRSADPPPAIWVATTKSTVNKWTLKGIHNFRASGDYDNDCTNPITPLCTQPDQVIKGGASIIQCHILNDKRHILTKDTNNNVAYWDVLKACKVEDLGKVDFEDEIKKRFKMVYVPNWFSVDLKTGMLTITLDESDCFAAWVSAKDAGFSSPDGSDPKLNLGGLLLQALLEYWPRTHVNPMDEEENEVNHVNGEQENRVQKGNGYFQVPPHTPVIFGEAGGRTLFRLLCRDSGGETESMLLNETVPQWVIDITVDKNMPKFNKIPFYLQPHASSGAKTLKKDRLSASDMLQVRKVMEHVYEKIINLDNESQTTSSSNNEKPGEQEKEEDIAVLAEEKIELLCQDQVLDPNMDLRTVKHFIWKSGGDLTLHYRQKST

Results are given in words; binding and its absence hold for the method and conditions named. Some entries that bind do so weakly or less than the wild type. Where a sequence is shown, tags or fusion partners need not be part of it.

The assay has as its target T1, His6-TEV-tagged USP1 (G670A/G671A mutated auto-cleavage site) (human) (UniProt O94782).
T1 sequence: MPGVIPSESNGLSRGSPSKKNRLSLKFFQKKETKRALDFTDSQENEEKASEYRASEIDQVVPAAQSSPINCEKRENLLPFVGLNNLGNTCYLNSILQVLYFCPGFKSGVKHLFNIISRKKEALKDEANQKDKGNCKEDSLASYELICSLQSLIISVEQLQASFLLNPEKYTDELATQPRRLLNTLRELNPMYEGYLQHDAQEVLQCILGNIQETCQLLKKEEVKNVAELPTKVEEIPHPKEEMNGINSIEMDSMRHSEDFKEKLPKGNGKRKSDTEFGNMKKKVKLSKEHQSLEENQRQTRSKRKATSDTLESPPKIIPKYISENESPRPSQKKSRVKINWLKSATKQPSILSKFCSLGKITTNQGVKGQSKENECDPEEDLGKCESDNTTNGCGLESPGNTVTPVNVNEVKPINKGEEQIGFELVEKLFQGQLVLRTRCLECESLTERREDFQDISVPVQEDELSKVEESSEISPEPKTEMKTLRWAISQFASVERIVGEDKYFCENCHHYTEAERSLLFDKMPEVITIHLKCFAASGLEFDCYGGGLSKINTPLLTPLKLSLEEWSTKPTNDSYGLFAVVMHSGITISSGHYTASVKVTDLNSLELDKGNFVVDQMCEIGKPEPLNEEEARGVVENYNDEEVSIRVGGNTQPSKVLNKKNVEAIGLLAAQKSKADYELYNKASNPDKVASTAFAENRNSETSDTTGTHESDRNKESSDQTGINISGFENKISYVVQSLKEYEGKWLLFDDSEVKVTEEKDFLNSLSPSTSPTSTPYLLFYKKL
Briefly: co-purification (Ni-NTA, anion exchange, gel filtration); USP1 and UAF1 co-expressed in Sf21 cells; complex bound to Ni-NTA through His6-TEV-USP1, ResourceQ, TEV cleavage, flow-through of Ni-NTA, Superdex 200 Increase in 20 mM Tris pH 8.0, 150 mM NaCl, 5% glycerol, 5 mM DTT; 4°C. In general terms: SEC sorts molecules by how far they enter the pores of the column.

As to UAF1 (from UniProt Q8TAF3 1-677), the binding result is “binds”.
